These are yes or no findings as the source states them, for the method shown. Some results given as binding are weak or reduced against the parent protein; the word gives no strength.
Biological target: 35S-labeled Msx1 (mouse) (UniProt P13297)
Test: in vitro interaction assay, GST fusion with 35S-labeled protein

Sequences of proteins named here, by UniProt entry; tags and fusion partners are left off. Residues count along the entry.
UniProt P13297, residues 7-303: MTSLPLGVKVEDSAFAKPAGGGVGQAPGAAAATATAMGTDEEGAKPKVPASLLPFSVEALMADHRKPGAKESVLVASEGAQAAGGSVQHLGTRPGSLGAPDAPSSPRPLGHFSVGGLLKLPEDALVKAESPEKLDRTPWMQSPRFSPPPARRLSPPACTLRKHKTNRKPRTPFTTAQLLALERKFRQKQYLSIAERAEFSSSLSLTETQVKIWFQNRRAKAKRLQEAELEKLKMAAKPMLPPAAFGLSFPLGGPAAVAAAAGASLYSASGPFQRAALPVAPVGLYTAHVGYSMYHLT
UniProt Q62441: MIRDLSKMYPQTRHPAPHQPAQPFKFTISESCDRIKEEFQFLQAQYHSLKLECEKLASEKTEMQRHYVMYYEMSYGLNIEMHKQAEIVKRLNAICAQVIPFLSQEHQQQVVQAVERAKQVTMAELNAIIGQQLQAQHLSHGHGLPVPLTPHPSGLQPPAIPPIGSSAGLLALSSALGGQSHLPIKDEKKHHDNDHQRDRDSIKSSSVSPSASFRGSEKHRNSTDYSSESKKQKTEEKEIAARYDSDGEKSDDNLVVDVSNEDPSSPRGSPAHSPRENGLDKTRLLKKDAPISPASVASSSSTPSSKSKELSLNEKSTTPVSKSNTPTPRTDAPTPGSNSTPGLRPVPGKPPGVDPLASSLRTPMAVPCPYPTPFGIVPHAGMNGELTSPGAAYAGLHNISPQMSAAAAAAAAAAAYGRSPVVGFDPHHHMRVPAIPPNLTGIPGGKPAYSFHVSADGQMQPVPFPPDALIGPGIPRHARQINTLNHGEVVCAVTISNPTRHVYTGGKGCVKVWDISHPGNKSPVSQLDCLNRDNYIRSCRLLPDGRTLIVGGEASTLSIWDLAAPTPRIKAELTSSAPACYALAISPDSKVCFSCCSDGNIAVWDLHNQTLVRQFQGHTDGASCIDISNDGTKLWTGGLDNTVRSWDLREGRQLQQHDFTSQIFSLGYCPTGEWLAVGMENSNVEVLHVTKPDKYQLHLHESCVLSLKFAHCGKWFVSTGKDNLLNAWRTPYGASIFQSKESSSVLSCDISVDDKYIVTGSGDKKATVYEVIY

- binding: binds
Substance: GST-Grg4 fusion protein (from UniProt Q62441 1-773)
